# This is one part of the list.
# B1: HA-61200 (Pseudomonas aeruginosa), Q02SP8_PSEAB (protein)
# chain: MNKCYALVWNVSQGCWNVVSEGSRRRGKPAGAKAAIASVLALLGATALAPAYALPSGGTVVGGSANGEIHLSGGNSLSVNQKVDKLIANWDSFSVAAGERVIFNQPSSSSIALNRVIGTKASDIQGRIDANGQVFLVNPNGVLFGRGAQVNVGGLVASTLDITDAEFNGNSSRYRFTGPSTNGVLNHGGAITAAEGGSIALLGAQVDNRGTVLAQMGGVGLGAGSDLTLNFDGNKLLDIRVDAGVANALASNGGLLKADGGRVLMAARTANALLNTVVNSQGAIEARSLRGKNGRIVLDG
# Columns and labels:
# Assay in all cases: glycan array binding signal (z-score within array); higher = stronger binding
# Settings in all cases: glycan notation: IUPAC condensed, linker removed
# [1] = target: Fuc(a1-3)[Gal(b1-4)]GlcNAc(b1-3)Gal(b1-3)[Fuc(a1-4)]GlcNAc
# Method in brief: (§1)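 Glycan array data came from 3228 arrays in the Consortium for Functional Glycomics database, and only arrays with an available protein sequence were kept. Glycan names were put into IUPAC-condensed notation, and columns mapping to the same glycan were averaged. The binding signal is a within-array Z-score, averaged across arrays of one protein sequence run at different concentrations or buffers and across linkers. A negative Z-score can be read as non-binding.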
# [2] = target: Fuc(a1-3)[Gal(b1-4)]GlcNAc(b1-3)Gal(b1-4)[Fuc(a1-3)]GlcNAc
# Method in brief: as §1
# [3] = target: Fuc(a1-3)[Gal(b1-4)]GlcNAc(b1-3)Gal(b1-4)[Fuc(a1-3)]GlcNAc(b1-3)Gal(b1-4)[Fuc(a1-3)]GlcNAc
# Method in brief: as §1
# [4] = target: Fuc(a1-3)[Gal(b1-4)]GlcNAc(b1-3)GalNAc
# Method in brief: as §1
# [5] = target: Fuc(a1-3)[Gal(b1-4)]GlcNAc(b1-6)GalNAc
# Method in brief: as §1
# [6] = target: Fuc(a1-3)[Gal(b1-4)]GlcNAc(b1-6)[Gal(b1-3)GlcNAc(b1-3)]Gal(b1-4)Glc
# Method in brief: as §1
# [7] = target: Fuc(a1-3)[Gal(b1-4)]GlcNAc6S
# Method in brief: as §1
# [8] = target: Fuc(a1-3)[Gal3S(b1-4)]Glc
# Method in brief: as §1
# [9] = target: Fuc(a1-3)[Gal3S(b1-4)]GlcNAc
# Method in brief: as §1
# [10] = target: Fuc(a1-3)[Gal3S(b1-4)]GlcNAc6S
# Method in brief: as §1
# [11] = target: Fuc(a1-3)[GalNAc(b1-4)]GlcNAc
# Method in brief: as §1
# [12] = target: Fuc(a1-3)[GalNAc(b1-4)]GlcNAc6S
# Method in brief: as §1
# Fuc(a1-4)GlcNAc = target: Fuc(a1-4)GlcNAc
# Method in brief: as §1
# Fuc(b1-3)GlcNAc = target: Fuc(b1-3)GlcNAc
# Method in brief: as §1
# Gal(a1-2)Gal = target: Gal(a1-2)Gal
# Method in brief: as §1
# Gal(a1-3)Gal = target: Gal(a1-3)Gal
# Method in brief: as §1
# Gal(a1-3)Gal(b1-3)GlcNAc = target: Gal(a1-3)Gal(b1-3)GlcNAc
# Method in brief: as §1
# [13] = target: Gal(a1-3)Gal(b1-3)GlcNAc(b1-2)Man
# Method in brief: as §1
# [14] = target: Gal(a1-3)Gal(b1-3)GlcNAc(b1-2)Man(a1-3)[Gal(a1-3)Gal(b1-3)GlcNAc(b1-2)Man(a1-6)]Man(b1-4)GlcNAc(b1-4)GlcNAc
# Method in brief: as §1
# [15] = target: Gal(a1-3)Gal(b1-3)GlcNAc(b1-3)GalNAc
# Method in brief: as §1
# [16] = target: Gal(a1-3)Gal(b1-3)GlcNAc(b1-6)GalNAc
# Method in brief: as §1
# [17] = target: Gal(a1-3)Gal(b1-3)[Fuc(a1-4)]GlcNAc(b1-2)Man(a1-3)[Gal(a1-3)Gal(b1-3)[Fuc(a1-4)]GlcNAc(b1-2)Man(a1-6)]Man(b1-4)GlcNAc(b1-4)GlcNAc
# Method in brief: as §1
# Gal(a1-3)Gal(b1-4)Glc = target: Gal(a1-3)Gal(b1-4)Glc
# Method in brief: as §1
# Gal(a1-3)Gal(b1-4)GlcNAc = target: Gal(a1-3)Gal(b1-4)GlcNAc
# Method in brief: as §1
# [18] = target: Gal(a1-3)Gal(b1-4)GlcNAc(b1-2)Man
# Method in brief: as §1
# [19] = target: Gal(a1-3)Gal(b1-4)GlcNAc(b1-2)Man(a1-3)[Gal(a1-3)Gal(b1-4)GlcNAc(b1-2)Man(a1-6)]Man(b1-4)GlcNAc(b1-4)GlcNAc
# Method in brief: as §1
# [20] = target: Gal(a1-3)Gal(b1-4)GlcNAc(b1-3)GalNAc
# Method in brief: as §1
# [21] = target: Gal(a1-3)Gal(b1-4)GlcNAc(b1-6)GalNAc
# Method in brief: as §1
# [22] = target: Gal(a1-3)Gal(b1-4)[Fuc(a1-3)]GlcNAc
# Method in brief: as §1
# [23] = target: Gal(a1-3)Gal(b1-4)[Fuc(a1-3)]GlcNAc(b1-2)Man(a1-3)[Gal(a1-3)Gal(b1-4)[Fuc(a1-3)]GlcNAc(b1-2)Man(a1-6)]Man(b1-4)GlcNAc(b1-4)GlcNAc
# Method in brief: as §1
# Gal(a1-3)GalNAc = target: Gal(a1-3)GalNAc
# Method in brief: as §1
# [24] = target: Gal(a1-3)[Gal(a1-4)]Gal(b1-4)GlcNAc
# Method in brief: as §1
# [25] = target: Gal(a1-4)Gal(b1-3)GlcNAc(b1-2)Man(a1-3)[Gal(a1-4)Gal(b1-3)GlcNAc(b1-2)Man(a1-6)]Man(b1-4)GlcNAc(b1-4)GlcNAc
# Method in brief: as §1
# Gal(a1-4)Gal(b1-4)Glc = target: Gal(a1-4)Gal(b1-4)Glc
# Method in brief: as §1
# Gal(a1-4)Gal(b1-4)GlcNAc = target: Gal(a1-4)Gal(b1-4)GlcNAc
# Method in brief: as §1
# [26] = target: Gal(a1-4)Gal(b1-4)GlcNAc(b1-2)Man(a1-3)[Gal(a1-4)Gal(b1-4)GlcNAc(b1-2)Man(a1-6)]Man(b1-4)GlcNAc(b1-4)GlcNAc
# Method in brief: as §1
# [27] = target: Gal(a1-4)Gal(b1-4)GlcNAc(b1-3)Gal(b1-4)Glc
# Method in brief: as §1
# Gal(a1-4)GlcNAc = target: Gal(a1-4)GlcNAc
# Method in brief: as §1
binder,measurement,setting,value
B1,glycan array binding signal (z-score),[1],-0.864
same,glycan array binding signal (z-score),[2],-0.066
same,glycan array binding signal (z-score),[3],-0.104
same,glycan array binding signal (z-score),[4],-0.408
same,glycan array binding signal (z-score),[5],0.649
same,glycan array binding signal (z-score),[6],-0.636
same,glycan array binding signal (z-score),[7],1.51
same,glycan array binding signal (z-score),[8],-0.319
same,glycan array binding signal (z-score),[9],-0.343
same,glycan array binding signal (z-score),[10],-0.041
same,glycan array binding signal (z-score),[11],0.68
same,glycan array binding signal (z-score),[12],-0.44
same,glycan array binding signal (z-score),Fuc(a1-4)GlcNAc,-0.926
same,glycan array binding signal (z-score),Fuc(b1-3)GlcNAc,-0.707
same,glycan array binding signal (z-score),Gal(a1-2)Gal,-1
same,glycan array binding signal (z-score),Gal(a1-3)Gal,-0.38
same,glycan array binding signal (z-score),Gal(a1-3)Gal(b1-3)GlcNAc,-0.705
same,glycan array binding signal (z-score),[13],-0.054
same,glycan array binding signal (z-score),[14],5.54
same,glycan array binding signal (z-score),[15],-0.047
same,glycan array binding signal (z-score),[16],0.334
same,glycan array binding signal (z-score),[17],0.726
same,glycan array binding signal (z-score),Gal(a1-3)Gal(b1-4)Glc,-0.013
same,glycan array binding signal (z-score),Gal(a1-3)Gal(b1-4)GlcNAc,-0.146
same,glycan array binding signal (z-score),[18],-0.282
same,glycan array binding signal (z-score),[19],0.841
same,glycan array binding signal (z-score),[20],-0.518
same,glycan array binding signal (z-score),[21],-1.12
same,glycan array binding signal (z-score),[22],-0.154
same,glycan array binding signal (z-score),[23],0.758
same,glycan array binding signal (z-score),Gal(a1-3)GalNAc,-0.442
same,glycan array binding signal (z-score),[24],0.037
same,glycan array binding signal (z-score),[25],9.66
same,glycan array binding signal (z-score),Gal(a1-4)Gal(b1-4)Glc,1.97
same,glycan array binding signal (z-score),Gal(a1-4)Gal(b1-4)GlcNAc,0.171
same,glycan array binding signal (z-score),[26],1.2
same,glycan array binding signal (z-score),[27],-0.716
same,glycan array binding signal (z-score),Gal(a1-4)GlcNAc,-0.101

# Reprinted at random: two records from the list.
binder,measurement,setting,value
B1,glycan array binding signal (z-score),Gal(a1-4)Gal(b1-4)GlcNAc,0.171
same,glycan array binding signal (z-score),[1],-0.864
